Paper PMC4244159
The exact form of at least one protein or probe is not confirmed. For some assays here: A negative result means that nothing was seen under these conditions. For some assays here: The comparison behind a weaker result is the experiment's own reference, which may not be listed here.

Chains of the proteins cited; added tags and fusions are not shown. Lines headed by an entry give the natural chain unless they say otherwise; changes in a name come on top.
UniProt Q12778: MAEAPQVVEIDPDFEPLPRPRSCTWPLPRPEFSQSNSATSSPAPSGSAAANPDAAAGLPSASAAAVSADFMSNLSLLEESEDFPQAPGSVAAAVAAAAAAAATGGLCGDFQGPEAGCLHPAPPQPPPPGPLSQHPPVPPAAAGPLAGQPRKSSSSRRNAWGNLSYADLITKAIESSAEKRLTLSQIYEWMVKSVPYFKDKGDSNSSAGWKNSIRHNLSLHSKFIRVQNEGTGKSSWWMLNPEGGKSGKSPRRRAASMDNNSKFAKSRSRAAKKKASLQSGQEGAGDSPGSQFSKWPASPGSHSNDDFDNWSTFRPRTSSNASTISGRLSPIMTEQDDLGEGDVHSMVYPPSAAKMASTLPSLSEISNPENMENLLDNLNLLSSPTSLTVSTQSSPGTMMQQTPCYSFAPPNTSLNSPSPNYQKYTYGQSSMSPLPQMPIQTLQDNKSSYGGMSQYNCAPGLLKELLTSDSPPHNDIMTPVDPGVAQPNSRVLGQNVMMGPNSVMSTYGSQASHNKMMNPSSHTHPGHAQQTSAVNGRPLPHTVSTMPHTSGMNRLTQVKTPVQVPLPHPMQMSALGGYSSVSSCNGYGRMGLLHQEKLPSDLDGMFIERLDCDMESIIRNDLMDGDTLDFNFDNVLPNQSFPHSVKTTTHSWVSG

What was measured:
[1] = target: Flag-FOXO1-CA (constitutively active FOXO1) (human) (UniProt Q12778); assay: EMSA; settings: 10 mM Hepes pH 7.8, 50 mM KCl, 5 mM MgCl2, 0.1% NP-40, 1 mM DTT, 2 µg poly(dI-dC), 10% glycerol; 1 fmol probe, 4 µL TnT lysate, 4°C 30 min; 5% PAGE, 0.25x TBE; protein translated in vitro; protein details: Flag; label: 32P 5' end
[2] = target: Flag-FOXO1-CA (constitutively active FOXO1) (human) (UniProt Q12778); assay: EMSA, Flag supershift; settings: 10 mM Hepes pH 7.8, 50 mM KCl, 5 mM MgCl2, 0.1% NP-40, 1 mM DTT, 2 µg poly(dI-dC), 10% glycerol; 1 fmol probe, 4 µL TnT lysate, 4°C 30 min; 5% PAGE, 0.25x TBE; protein translated in vitro; protein details: Flag; label: 32P 5' end

| Sequence | binding result [1] | binding result [2] |
| --- | --- | --- |
| AAAGAATAGTCTAGACTCTAGAGTCACATTTAATT (double strand) [Fshb -275/-241] | no binding |  |
| ATCATCACTGATAGCATTTTCTGCTCTGTGGCATT (double strand) [Fshb -185/-151] | no binding |  |
| CTAGATGGTAAACAACTGTGACTAGTAGAACACGG (double strand) [consensus FBE] |  | binds |
| GCATTTAGACTGCTTTGGCGAGGCTTGATCTCCCT (double strand) [Fshb -155/-121] | no binding |  |
| GCCATATCAGATTCGGTTTGTACAGAAACCATCAT (double strand) [Fshb -215/-181] | no binding |  |
| GGATTCTGAGTTCGCCAAGTTAAAGATCAGAAAGA (double strand) [Fshb -305/-271] | no binding |  |
| TAATTTACAAGGTGAGGGAGTGGGTGTGCTGCCAT (double strand) [Fshb -245/-211] | no binding |  |
| TCCCTGTCCGTCTAAACAATGATTCCCTTTCAGCA (double strand) [Fshb -125/-91] |  | binds more weakly |
